Experimental findings from patent publication US20240239759A1, “ISOXAZOLINE COMPOSITIONS AND THEIR USE AS ANTIPARASITICS” (Intervet Inc., priority 2007, published 2024) are described below.

Structures are written as SMILES.

The series has as its system adult fleas (C. felis). The series can be described thus: Efficacy against fleas on mice (Example 2A). In kind it is in vivo, Ctenocephalides felis. Particulars: in general over the experiment. As to the method:
Mice were divided into groups of three, and treated topically with 100 ppm body weight, orally with 10 mg/kg bodyweight, or subcutaneously with 10 mg/kg bodyweight of Compound 11-1, fipronil (positive control), or nothing (negative control). These mice were sedated and infested with adult fleas (C. felis) 1, 3, 6, and 24 hr after treatment. Fleas were recovered from the mice after approximately 30 minutes of feeding. The assessment of flea inhibition (% of dead and damaged fleas) was conducted 1 and 24 hr after each infestation.

Turning to `Cc1cc(C2=NOC(c3cc(Cl)cc(Cl)c3)(C(F)(F)F)C2)ccc1C(=O)NCC(=O)NCC(F)(F)F` (racemic) [Compound 11-1, 4-[5-(3,5-dichlorophenyl)-5-trifluoromethyl-4,5-dihydroisoxazol-3-yl]-2-methyl-N-[(2,2,2-trifluoro-ethylcarbamoyl)-methyl]-benzamide], the “Damaged fleas relative to killed fleas” value is listed as “only a few damaged fleas were found relative to killed fleas”.

Turning to `N#Cc1nn(-c2c(Cl)cc(C(F)(F)F)cc2Cl)c(N)c1[S+]([O-])C(F)(F)F` (centres unmarked) [fipronil, reference compound], the “Damaged fleas relative to killed fleas” value is “killed and damaged fleas were generally found in equal amounts”.
